Test results published in US20070190043A1 (Biofrontera AG, priority 2003, published 2007).
Where two headings read alike, the source gives them in different places.

Tests used:
[1] = for plasma exposure: 2.5 mg/kg, female NZW rabbits
[2] = last application day
[3] = tested on: T cells; test: cells; details: T-cell, 3 h, read-out: IC50 proliferation

## Nc1nc2ccc(OC(F)(F)F)cc2s1 [Riluzole, 2-amino-6-(trifluoromethoxy)-benzothiazole]
[1]; single dermal application, 4% cream in DAC Basiscreme
  plasma exposure: 363 ± 299 ng·h/mL
[1]; single oral administration, suspension in 1% MC
  plasma exposure: 157 ± 46 ng·h/mL
[1]; single topical 4% cream versus single oral suspension, 2.5 mg/kg each
  plasma exposure topical versus oral: more than twice as high
[2]; oral 2.5 mg/kg for 8 consecutive days
  plasma exposure (mean): 86 ng·h/mL
[2]; topical 1% cream in DAC Basiscreme, twice daily 28 days
  plasma exposure (mean): 129 ng·h/mL
[2]; topical 2% cream in DAC Basiscreme, twice daily 28 days
  plasma exposure (mean): 191 ng·h/mL
[2]; topical 4% cream in DAC Basiscreme, twice daily 28 days
  plasma exposure (mean): 347 ng·h/mL
[3]
  IC50: 43 µM
